# In PubChem BioAssay AID540276 (National Center for Advancing Translational Sciences (NCATS), 2011):
# Out of some 300,000 compounds screened, about 5,400 (1.8%) were called active. The inconclusive results got no clear call from the source; some entries with a clear call stand among them for comparison. Calls follow the shape of the full dose curve; tested in HEK293 cells. Potencies of inconclusive entries are doubtful fits and often do not repeat.
# Experiment: qHTS for inhibitors of binding or entry into cells for Marburg Virus
# Conditions: Marburg virus pseudotyped entry inhibition, cell reporter; activity change, negative = inhibition: at 37.8 µM (top of the series) unless noted
# % is scaled to controls: 0 for no effect and ±100 for the full control effect; potency is read from the fitted curve at half-maximal effect.
SMILES,Potency,"activity change, negative = inhibition"
COc1nc2c(C)cccc2cc1-c1noc(-c2ccco2)n1,"inconclusive: 3.16 µM [activator, single point]",
Cc1c(NC(=O)Nc2ccc3c(c2)OCO3)cccc1[N+](=O)[O-],"inconclusive: 8.91 µM [activator, partial curve, poor fit]",
Cc1ccc(-n2cnc3cc(NCc4cccs4)ccc32)cc1,"inconclusive: 6.51 µM [activator, full curve]",
Cc1cccc(OCc2nnc(SCC(=O)Nc3ccc(C)cc3C)o2)c1,,inactive: -4.49% [at 46.1 µM]
O=C(NCC12CC3CC(CC(C3)C1)C2)c1cc2n(n1)C(C(F)(F)F)CC(c1ccco1)N2 (stereo not drawn),"inconclusive: 11.2 µM [inhibitor, partial curve, poor fit]",
O=C(NC1=CC(=O)c2ccccc2C1=O)c1ccccc1,active: 10 µM,
CNc1nc(SCc2ccccc2Cl)nc2c1CCCC2,,inactive: -22.1%
COc1ccc(S(=O)(=O)N(Cc2nc(-c3cccc(C)c3)no2)C2CCCCC2)cc1,"inconclusive: 1.58 µM [inhibitor, full curve, poor fit]",
Oc1[nH]c2ccccc2c1N=Nc1ccccn1,"inconclusive: 5.01 µM [activator, partial curve, poor fit]",
c1ccc2c(Oc3ccc4c(c3)OCO4)nncc2c1,"inconclusive: 14.1 µM [inhibitor, single point]",
Cc1ccccc1Cn1c(CCCNC(=O)C2CCCCC2)nc2ccccc21,"inconclusive: 2.82 µM [inhibitor, full curve]",
COc1cc(-c2nnc(SCC(=O)N3CCCC3)o2)cc(OC)c1OC,inactive,
COc1ccc(NC(=O)NC2(C(=O)N3CCCCCC3)CCCCC2)cc1,"inconclusive: 35.5 µM [inhibitor, partial curve, poor fit]",
CCSc1nnc(NC(=O)NCC(F)(F)F)s1,,inactive: 6.92%
Cc1noc(C)c1C(=O)Nc1sc(C)c(-c2ccccc2)c1C#N,,inactive: -1.45%
CCOc1ccc(C(=O)c2cn(CC(=O)Nc3cc(OC)cc(OC)c3)c3ccc(F)cc3c2=O)cc1,,inactive: -18.4% [at 46.1 µM]
CCOc1ccc(C(C)NC(=S)NCc2ccc(F)cc2)cc1 (stereo not drawn),"inconclusive: 1.26 µM [inhibitor, full curve, poor fit]",
OC(CC#CCN1CCCC1)(c1ccccc1)c1ccccc1,active: 10 µM,
CCNC(=O)CC1C(=O)N(c2ccccc2)C(=O)N1Cc1ccc(F)cc1 (stereo not drawn),,inactive: 1.49% [at 46.1 µM]
CC(C)[C@H](NC(=O)N1CCn2c1nc1ccccc12)C(=O)NCCc1ccccc1,"inconclusive: 0.562 µM [inhibitor, full curve, poor fit]",
Cc1cc(Cl)ccc1NC(=O)c1ccc2c(c1)OCO2,"inconclusive: 0.112 µM [activator, full curve, poor fit]",
COc1ccc(C2C3=C(CC(C)(C)CC3=O)Oc3ncn(Cc4ccco4)c(=N)c32)cc1 (stereo not drawn),"inconclusive: 14.6 µM [inhibitor, partial curve, poor fit]",
OCCCNc1c2ccccc2nc2ccccc12,active: 7.08 µM,

SMILES,Potency,"activity change, negative = inhibition"
Cc1ccc(NC(=O)CSc2nc(-c3ccc(F)cc3)cc(C(F)(F)F)c2C#N)cc1,"inconclusive: 3.55 µM [inhibitor, partial curve, poor fit]",
O=C(Nc1ccc(N2CCN(Cc3ccccc3)CC2)cc1)c1cccnc1,,inactive: -13.2%
c1ccc(-c2ccc(CNC3CC3)cc2)cc1,,inactive: 13.1% [at 46.1 µM]
COc1ccc(Cl)cc1N(CC(=O)Nc1ccc2c(c1)OCO2)S(C)(=O)=O,"inconclusive: 6.51 µM [activator, single point]",
Cc1ccc(C2=NC(C(F)(F)F)(C(F)(F)F)c3c(n(-c4ccc(F)cc4)c(=O)[nH]c3=O)N2)cc1,"inconclusive: 8.91 µM [inhibitor, partial curve, poor fit]",
C/C(=N\NC(=O)CC#N)c1cc2ccccc2oc1=O,,inactive: 23.3%
CCN(CC)c1ccc(C=C(c2nnnn2-c2ccccc2)c2nnnn2-c2ccccc2)cc1,"inconclusive: 11.2 µM [inhibitor, partial curve, poor fit]",
CC1CCC(C(C)C)C(OC(=O)C[n+]2cc(-c3ccc(Cl)cc3)n3c2CCCCC3)C1 (stereo not drawn),"inconclusive: 15.8 µM [inhibitor, partial curve, poor fit]",
Cc1cccc(-n2c(C)nc3cc(C(=O)N4CCC5(CC4)OCCO5)ccc32)c1,"inconclusive: 4.61 µM [inhibitor, single point]",
O=C(NNC(=O)c1ccccc1F)c1ccc2nc[nH]c2c1,,inactive: 15.3% [at 46.1 µM]
Cc1ccc(-c2nnn(CC(=O)N(CCN3CCOCC3)C(C(=O)NC(C)(C)C)c3ccc(C)o3)n2)cc1 (stereo not drawn),"inconclusive: 15.8 µM [inhibitor, partial curve, poor fit]",
COc1ccc(-c2nn(-c3ccccc3C)cc2CNCCc2cnc[nH]2)cc1F,"inconclusive: 25.1 µM [inhibitor, partial curve, poor fit]",
O=C(OCc1cc(=O)n2c(n1)sc1ccccc12)c1cccc(O)c1,"inconclusive: 2.82 µM [activator, full curve, poor fit]",
Cc1ccc(S(=O)(=O)NC2c3cccc4cccc(c34)C2Sc2ncccn2)cc1 (stereo not drawn),"inconclusive: 12.6 µM [inhibitor, single point]",
O=C(CSc1ccc(-c2ccccc2)nn1)NCc1ccco1,"inconclusive: 0.0052 µM [inhibitor, full curve, poor fit]",
Cc1ccc(C(=O)NNC(=O)c2ccc(S(=O)(=O)N3CCCCC3)cc2)cc1,"inconclusive: 2 µM [inhibitor, full curve, poor fit]",
Cc1ccc(NC(=O)CSc2nc3ccc(NC(=O)c4cccs4)cc3s2)c(C)c1,"inconclusive: 15.8 µM [inhibitor, partial curve, poor fit]",
CCN(C(=O)CSc1ncccn1)c1c(N)n(Cc2ccccc2)c(=O)[nH]c1=O,"inconclusive: 3.55 µM [activator, single point]",
COc1cc(/C=N/OCC(=O)Nc2ccc(OC(F)F)cc2)ccc1OCc1ccccc1,active: 7.08 µM,
COc1cc(C[C@H](C)N)c(OC)cc1I,"inconclusive: 16.4 µM [inhibitor, single point]",
C#CCOc1ccc(/C=N/NC(=O)c2cccnc2)cc1OCC,"inconclusive: 0.562 µM [inhibitor, full curve, poor fit]",
CSc1nc2sc3c(c2c(=O)n1C)CCCC3,,inactive: 11.9%
Cc1ccc(O)c(C2=Nc3ccccc3N=C(c3ccc([N+](=O)[O-])cc3)C2)c1,,inactive: 13%

SMILES,Potency,"activity change, negative = inhibition"
O=C(c1ccc(Oc2ccc(C(F)(F)F)cc2[N+](=O)[O-])cc1)N1CCOCC1,"inconclusive: 0.0891 µM [activator, full curve, poor fit]",
COc1ccc(CCN2CC(C(=O)N(C)Cc3cccnc3)CC2=O)cc1OC (stereo not drawn),"inconclusive: 1.78 µM [inhibitor, partial curve, poor fit]",
COC(=O)Cn1c2nc3ccccc3nc2c2cccc(C)c21,"inconclusive: 35.5 µM [inhibitor, single point]",
CN1CC2(Cc3c1ccc1ccccc31)C(=O)OC(C)(C)OC2=O,"inconclusive: 11.2 µM [inhibitor, partial curve, poor fit]",
COc1ccccc1CNC(=O)C(=O)NCC1OCCN1S(=O)(=O)c1ccccc1 (stereo not drawn),"inconclusive: 14.1 µM [activator, partial curve, poor fit]",
CC(C)(C)S(=O)(=O)c1ccccc1-c1noc(-c2ccccc2)c1C(N)=O,,inactive: 3.72% [at 46.1 µM]
CCOc1ncccc1C(=O)Nc1cc(S(=O)(=O)N2CCCCC2)ccc1Cl,"inconclusive: 12.6 µM [inhibitor, partial curve]",
Brc1ccc(/C=N/Nc2ccccn2)cc1,"inconclusive: 2.82 µM [activator, partial curve, poor fit]",
COc1ccc(/C=N/NC(=O)C(=O)/C=C2\NC3(CCCC3)Cc3ccccc32)cc1,"inconclusive: 20 µM [inhibitor, partial curve, poor fit]",
Cc1ccc(CNC(=O)CCCc2nc3ccccc3s2)cc1,"inconclusive: 0.731 µM [activator, full curve, poor fit]",
COC(=O)C(C)(C)ONC(=O)Nc1ccc(C)cc1,"inconclusive: 8.91 µM [activator, partial curve, poor fit]",
CC(=O)N1CCN(c2ccc(NC(=O)c3ccco3)cc2Cl)CC1,,inactive: 15.4%
Clc1ccccc1C1SCC2Nc3ccccc3CN21 (stereo not drawn),"inconclusive: 31.6 µM [inhibitor, single point]",
CCCCNC(=O)COC(=O)c1ccc(F)cc1Cl,,inactive: 12.2% [at 46.1 µM]
COc1cc(C2c3cc4c(cc3OC(NNC(N)=S)C2C)OCO4)cc(OC)c1OC (stereo not drawn),"inconclusive: 0.501 µM [inhibitor, full curve, poor fit]",
CC(=O)Nc1cnc2ccccc2n1,inactive,
Oc1ccc(C2NCc3ccccc3-n3cccc32)cc1Cl (stereo not drawn),"inconclusive: 35.5 µM [inhibitor, single point]",
CC(=O)c1cc2c(s1)-c1cc(F)ccc1OC2,"inconclusive: 7.08 µM [inhibitor, full curve, poor fit]",
Cc1c(Cl)cccc1NC(=O)c1nc(C)n(-c2cc(OC(C)C)c(Cl)cc2Cl)n1,"inconclusive: 5.8 µM [inhibitor, partial curve, poor fit]",
Cc1ccc2nc(Cl)c3cc(C(=O)N(C)C4CCCCC4)sc3c2c1,,inactive: 10.5% [at 46.1 µM]
CC(OC(=O)c1ccc(Cl)c(S(=O)(=O)N2CCOCC2)c1)C(=O)Nc1ccc(S(N)(=O)=O)cc1 (stereo not drawn),,inactive: 0.624% [at 46.1 µM]
COC(=O)c1c(-c2ccc(C)cc2)csc1NC(=O)C1CC=CCC1C(=O)O (stereo not drawn),"inconclusive: 8.91 µM [activator, partial curve, poor fit]",

# Another view of 19 compounds above:
SMILES	Potency	activity change, negative = inhibition
O=C(NC1=CC(=O)c2ccccc2C1=O)c1ccccc1	active: 10 µM	
Oc1[nH]c2ccccc2c1N=Nc1ccccn1	inconclusive: 5.01 µM [activator, partial curve, poor fit]	
Cc1ccccc1Cn1c(CCCNC(=O)C2CCCCC2)nc2ccccc21	inconclusive: 2.82 µM [inhibitor, full curve]	
CCSc1nnc(NC(=O)NCC(F)(F)F)s1		inactive: 6.92%
CCOc1ccc(C(C)NC(=S)NCc2ccc(F)cc2)cc1 (stereo not drawn)	inconclusive: 1.26 µM [inhibitor, full curve, poor fit]	
Cc1cc(Cl)ccc1NC(=O)c1ccc2c(c1)OCO2	inconclusive: 0.112 µM [activator, full curve, poor fit]	
O=C(Nc1ccc(N2CCN(Cc3ccccc3)CC2)cc1)c1cccnc1		inactive: -13.2%
c1ccc(-c2ccc(CNC3CC3)cc2)cc1		inactive: 13.1% [at 46.1 µM]
CCN(CC)c1ccc(C=C(c2nnnn2-c2ccccc2)c2nnnn2-c2ccccc2)cc1	inconclusive: 11.2 µM [inhibitor, partial curve, poor fit]	
Cc1ccc(-c2nnn(CC(=O)N(CCN3CCOCC3)C(C(=O)NC(C)(C)C)c3ccc(C)o3)n2)cc1 (stereo not drawn)	inconclusive: 15.8 µM [inhibitor, partial curve, poor fit]	
Cc1ccc(C(=O)NNC(=O)c2ccc(S(=O)(=O)N3CCCCC3)cc2)cc1	inconclusive: 2 µM [inhibitor, full curve, poor fit]	
CSc1nc2sc3c(c2c(=O)n1C)CCCC3		inactive: 11.9%
Cc1ccc(O)c(C2=Nc3ccccc3N=C(c3ccc([N+](=O)[O-])cc3)C2)c1		inactive: 13%
CC(C)(C)S(=O)(=O)c1ccccc1-c1noc(-c2ccccc2)c1C(N)=O		inactive: 3.72% [at 46.1 µM]
COc1ccc(/C=N/NC(=O)C(=O)/C=C2\NC3(CCCC3)Cc3ccccc32)cc1	inconclusive: 20 µM [inhibitor, partial curve, poor fit]	
CC(=O)N1CCN(c2ccc(NC(=O)c3ccco3)cc2Cl)CC1		inactive: 15.4%
CC(=O)Nc1cnc2ccccc2n1	inactive	
Oc1ccc(C2NCc3ccccc3-n3cccc32)cc1Cl (stereo not drawn)	inconclusive: 35.5 µM [inhibitor, single point]	
Cc1c(Cl)cccc1NC(=O)c1nc(C)n(-c2cc(OC(C)C)c(Cl)cc2Cl)n1	inconclusive: 5.8 µM [inhibitor, partial curve, poor fit]	

# 3 structures from above, sorted by length of the SMILES, descending.
SMILES,Potency,"activity change, negative = inhibition"
Cc1ccc(C2=NC(C(F)(F)F)(C(F)(F)F)c3c(n(-c4ccc(F)cc4)c(=O)[nH]c3=O)N2)cc1,"inconclusive: 8.91 µM [inhibitor, partial curve, poor fit]",
COc1ccc(-c2nn(-c3ccccc3C)cc2CNCCc2cnc[nH]2)cc1F,"inconclusive: 25.1 µM [inhibitor, partial curve, poor fit]",
CNc1nc(SCc2ccccc2Cl)nc2c1CCCC2,,inactive: -22.1%
